# According to the supplement of paper PMC8728848:
# The other results are listed elsewhere or left out.
# Tests used:
# Assay in all cases: glycan array binding signal (z-score within array); higher = stronger binding
# Settings in all cases: glycan notation: IUPAC condensed, linker removed
# [1] = target: Fuc(a1-2)Gal
# Outline: (§1)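 From the Consortium for Functional Glycomics database, 3228 arrays were curated, keeping only those whose protein sequence was available. Binding is given as a within-array Z-score averaged across arrays sharing a protein sequence and across linkers. Negative Z-scores can be read as non-binding.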
# [2] = target: Fuc(a1-2)Gal(b1-3)GalNAc
# Outline: as §1
# [3] = target: Fuc(a1-2)Gal(b1-3)GalNAc(a1-3)[Fuc(a1-2)]Gal(b1-4)Glc
# Outline: as §1
# [4] = target: Fuc(a1-2)Gal(b1-3)GalNAc(a1-3)[Fuc(a1-2)]Gal(b1-4)GlcNAc
# Outline: as §1
# [5] = target: Fuc(a1-2)Gal(b1-3)GalNAc(b1-3)Gal
# Outline: as §1
# [6] = target: Fuc(a1-2)Gal(b1-3)GalNAc(b1-3)Gal(a1-4)Gal(b1-4)Glc
# Outline: as §1
# [7] = target: Fuc(a1-2)Gal(b1-3)GalNAc(b1-4)[Neu5Ac(a2-3)]Gal(b1-4)Glc
# Outline: as §1
# [8] = target: Fuc(a1-2)Gal(b1-3)GlcNAc
# Outline: as §1
# [9] = target: Fuc(a1-2)Gal(b1-3)GlcNAc(b1-2)Man(a1-3)[Fuc(a1-2)Gal(b1-3)GlcNAc(b1-2)Man(a1-6)]Man(b1-4)GlcNAc(b1-4)GlcNAc
# Outline: as §1
# [10] = target: Fuc(a1-2)Gal(b1-3)GlcNAc(b1-3)Gal(b1-4)Glc
# Outline: as §1
# [11] = target: Fuc(a1-2)Gal(b1-3)GlcNAc(b1-3)[Fuc(a1-3)[Gal(b1-4)]GlcNAc(b1-6)]Gal(b1-4)Glc
# Outline: as §1
# [12] = target: Fuc(a1-2)Gal(b1-3)[Fuc(a1-4)]GlcNAc
# Outline: as §1
# [13] = target: Fuc(a1-2)Gal(b1-3)[Fuc(a1-4)]GlcNAc(b1-2)Man(a1-3)[Fuc(a1-2)Gal(b1-3)[Fuc(a1-4)]GlcNAc(b1-2)Man(a1-6)]Man(b1-4)GlcNAc(b1-4)GlcNAc
# Outline: as §1
# [14] = target: Fuc(a1-2)Gal(b1-3)[Fuc(a1-4)]GlcNAc(b1-3)[Fuc(a1-3)[Gal(b1-4)]GlcNAc(b1-6)]Gal(b1-4)Glc
# Outline: as §1
# [15] = target: Fuc(a1-2)Gal(b1-3)[Fuc(a1-4)]GlcNAc(b1-3)[Gal(b1-4)GlcNAc(b1-6)]Gal(b1-4)Glc
# Outline: as §1
# [16] = target: Fuc(a1-2)Gal(b1-4)Glc
# Outline: as §1
# [17] = target: Fuc(a1-2)Gal(b1-4)Glc6S
# Outline: as §1
# [18] = target: Fuc(a1-2)Gal(b1-4)GlcNAc
# Outline: as §1
# [19] = target: Fuc(a1-2)Gal(b1-4)GlcNAc(b1-2)Man(a1-3)[Fuc(a1-2)Gal(b1-4)GlcNAc(b1-2)Man(a1-6)]Man(b1-4)GlcNAc(b1-4)GlcNAc
# Outline: as §1
# [20] = target: Fuc(a1-2)Gal(b1-4)GlcNAc(b1-3)Gal(b1-4)GlcNAc
# Outline: as §1
# [21] = target: Fuc(a1-2)Gal(b1-4)GlcNAc(b1-3)Gal(b1-4)GlcNAc(b1-3)Gal(b1-4)GlcNAc
# Outline: as §1
# [22] = target: Fuc(a1-2)Gal(b1-4)GlcNAc(b1-3)GalNAc
# Outline: as §1
# [23] = target: Fuc(a1-2)Gal(b1-4)GlcNAc6S
# Outline: as §1
# [24] = target: Fuc(a1-2)Gal(b1-4)[Fuc(a1-3)]GlcNAc
# Outline: as §1
# [25] = target: Fuc(a1-2)Gal(b1-4)[Fuc(a1-3)]GlcNAc(b1-2)Man(a1-3)[Fuc(a1-2)Gal(b1-4)[Fuc(a1-3)]GlcNAc(b1-2)Man(a1-6)]Man(b1-4)GlcNAc(b1-4)GlcNAc
# Outline: as §1
# [26] = target: Fuc(a1-2)Gal(b1-4)[Fuc(a1-3)]GlcNAc(b1-3)Gal(b1-4)[Fuc(a1-3)]GlcNAc
# Outline: as §1
# [27] = target: Fuc(a1-2)Gal(b1-4)[Fuc(a1-3)]GlcNAc(b1-3)Gal(b1-4)[Fuc(a1-3)]GlcNAc(b1-3)Gal(b1-4)[Fuc(a1-3)]GlcNAc
# Outline: as §1
# [28] = target: Fuc(a1-2)Gal6S(b1-4)Glc
# Outline: as §1
# [29] = target: Fuc(a1-2)Gal6S(b1-4)Glc6S
# Outline: as §1
# [30] = target: Fuc(a1-2)Gal6S(b1-4)GlcNAc
# Outline: as §1
binder,measurement,setting,value
"PEB1 (Campylobacter jejuni), Q0P9X8 (protein) MVFRKSLLKLAVFALGACVAFSNANAAEGKLESIKSKGQLIVGVKNDVPHYALLDQATGEIKGFEVDVAKLLAKSILGDDKKIKLVAVNAKTRGPLLDNGSVDAVIATFTITPERKRIYNFSEPYYQDAIGLLVLKEKKYKSLADMKGANIGVAQAATTKKAIGEAAKKIGIDVKFSEFPDYPSIKAALDAKRVDAFSVDKSILLGYVDDKSEILPDSFEPQSYGIVTKKDDPAFAKYVDDFVKEHKNEIDALAKKWGL",glycan array binding signal (z-score),[1],0.886
same,glycan array binding signal (z-score),[2],0.281
same,glycan array binding signal (z-score),[3],-0.113
same,glycan array binding signal (z-score),[4],-0.166
same,glycan array binding signal (z-score),[5],-1.64
same,glycan array binding signal (z-score),[6],-0.23
same,glycan array binding signal (z-score),[7],0.131
same,glycan array binding signal (z-score),[8],0.973
same,glycan array binding signal (z-score),[9],0.653
same,glycan array binding signal (z-score),[10],0.624
same,glycan array binding signal (z-score),[11],-0.515
same,glycan array binding signal (z-score),[12],1.23
same,glycan array binding signal (z-score),[13],1.86
same,glycan array binding signal (z-score),[14],0.58
same,glycan array binding signal (z-score),[15],-0.116
same,glycan array binding signal (z-score),[16],-0.354
same,glycan array binding signal (z-score),[17],1.42
same,glycan array binding signal (z-score),[18],0.143
same,glycan array binding signal (z-score),[19],-0.012
same,glycan array binding signal (z-score),[20],-0.874
same,glycan array binding signal (z-score),[21],2.36
same,glycan array binding signal (z-score),[22],0.452
same,glycan array binding signal (z-score),[23],-0.084
same,glycan array binding signal (z-score),[24],0.977
same,glycan array binding signal (z-score),[25],2.2
same,glycan array binding signal (z-score),[26],0.127
same,glycan array binding signal (z-score),[27],0.705
same,glycan array binding signal (z-score),[28],1.04
same,glycan array binding signal (z-score),[29],-0.038
same,glycan array binding signal (z-score),[30],0.768
